Measurements as given in paper PMC11144933.
These are yes or no findings as the source states them, for the method shown. Binding seen in cells or lysates may run through a third protein. Some results given as binding are weak or reduced against the parent protein; the word gives no strength.

By UniProt entry, the sequences of proteins in these tests, tags left out. Residues count along the entry.
UniProt P20029, residues 20-655: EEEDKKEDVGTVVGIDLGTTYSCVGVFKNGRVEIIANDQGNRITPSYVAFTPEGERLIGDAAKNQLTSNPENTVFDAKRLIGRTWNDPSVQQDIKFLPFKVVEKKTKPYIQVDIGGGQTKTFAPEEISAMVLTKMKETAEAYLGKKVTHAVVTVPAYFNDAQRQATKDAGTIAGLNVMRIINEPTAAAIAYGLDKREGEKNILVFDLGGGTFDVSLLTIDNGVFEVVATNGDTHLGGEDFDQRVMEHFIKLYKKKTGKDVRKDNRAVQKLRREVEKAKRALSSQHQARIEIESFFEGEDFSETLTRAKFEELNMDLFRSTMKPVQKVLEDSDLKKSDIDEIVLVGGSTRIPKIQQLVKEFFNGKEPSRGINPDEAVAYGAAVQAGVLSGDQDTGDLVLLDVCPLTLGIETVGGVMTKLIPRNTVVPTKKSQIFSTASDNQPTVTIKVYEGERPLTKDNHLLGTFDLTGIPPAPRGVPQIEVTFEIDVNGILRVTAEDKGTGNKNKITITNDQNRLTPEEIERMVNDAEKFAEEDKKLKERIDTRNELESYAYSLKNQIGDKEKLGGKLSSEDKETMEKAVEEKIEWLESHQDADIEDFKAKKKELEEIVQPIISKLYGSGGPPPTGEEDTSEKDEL

Molecular target: T1, epithelial sodium channel alpha subunit (α-ENaC) (mouse (endogenous in MIN6)) (UniProt Q61180)
T1 sequence: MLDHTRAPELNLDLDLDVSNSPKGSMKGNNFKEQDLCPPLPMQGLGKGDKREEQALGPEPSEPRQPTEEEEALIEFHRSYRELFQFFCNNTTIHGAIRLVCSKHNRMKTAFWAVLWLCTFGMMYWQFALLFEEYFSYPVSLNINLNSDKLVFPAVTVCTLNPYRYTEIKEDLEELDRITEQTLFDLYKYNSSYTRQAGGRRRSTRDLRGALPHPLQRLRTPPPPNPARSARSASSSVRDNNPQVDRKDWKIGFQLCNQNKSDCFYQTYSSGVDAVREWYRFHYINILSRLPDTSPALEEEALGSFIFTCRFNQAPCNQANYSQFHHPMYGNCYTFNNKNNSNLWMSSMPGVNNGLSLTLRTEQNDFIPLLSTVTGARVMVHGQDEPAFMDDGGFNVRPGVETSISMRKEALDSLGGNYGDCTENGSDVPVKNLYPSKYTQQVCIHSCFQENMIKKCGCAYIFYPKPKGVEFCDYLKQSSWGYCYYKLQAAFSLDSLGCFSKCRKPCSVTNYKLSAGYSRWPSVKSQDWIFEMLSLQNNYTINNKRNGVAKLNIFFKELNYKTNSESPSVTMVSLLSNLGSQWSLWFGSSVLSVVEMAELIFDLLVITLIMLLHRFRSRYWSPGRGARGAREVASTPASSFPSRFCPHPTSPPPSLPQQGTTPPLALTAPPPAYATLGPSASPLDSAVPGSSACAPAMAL
Test: co-IP; MIN6 lysate in NP40 with 10 mmol/L Tris-HCl and 10 mmol/L NaCl; 1 mg of protein, target antibody at 4 ℃ overnight, protein A beads 2 to 6 h; Western blotting

Substance: 78 kDa glucose-regulated protein (from UniProt P20029 20-655)
- binding: binds weakly
